{"sequences": {"note": "The chains behind the UniProt entries cited, without tags or fusion partners. Where a name states a change or a piece, a line headed by the entry shows the natural chain unless it says otherwise. Residues count along the entry.", "UniProt P12978": "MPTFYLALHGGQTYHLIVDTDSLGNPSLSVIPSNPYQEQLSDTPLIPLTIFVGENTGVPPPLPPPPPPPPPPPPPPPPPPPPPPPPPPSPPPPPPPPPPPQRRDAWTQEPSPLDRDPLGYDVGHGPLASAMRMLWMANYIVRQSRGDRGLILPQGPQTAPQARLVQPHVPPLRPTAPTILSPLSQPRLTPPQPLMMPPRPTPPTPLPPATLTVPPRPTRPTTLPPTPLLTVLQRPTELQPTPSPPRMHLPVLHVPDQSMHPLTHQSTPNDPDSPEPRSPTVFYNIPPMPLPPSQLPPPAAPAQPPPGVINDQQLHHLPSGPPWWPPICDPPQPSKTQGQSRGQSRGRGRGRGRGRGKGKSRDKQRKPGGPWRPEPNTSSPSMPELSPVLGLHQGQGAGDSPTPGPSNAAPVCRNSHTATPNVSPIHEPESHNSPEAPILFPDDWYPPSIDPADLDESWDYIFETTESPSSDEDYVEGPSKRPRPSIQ", "GST-EBNA2 fusion protein containing aa 300–400 of EBNA2, unmethylated (NMA)": "residues 300-400 of P12978", "GST-EBNA2 aa400–487 fusion protein": "residues 400-487 of P12978"}, "source": "paper PMC3411732", "key": {"[1]": {"biological_target": "GFP-hnRNP K, expressed in BHK cells with a lacO array (UniProt P61978)", "test": "two-hybrid; fluorescent two-hybrid assay in BHK cells with a genomic lacO array: GFP fusion (bait) captured at the array by GBP-LacI, co-localisation of the CFP or DsRed fusion (prey) at the lacO spot; cells fixed about 16 h after transfection"}, "[2]": {"biological_target": "GST-EBNA2 aa400–487 fusion protein (Epstein-Barr virus) (UniProt P12978)", "test": "pull-down; GST fusion proteins on glutathione-Sepharose beads, incubated 2 h at 4°C with 500 µl DG75 native whole cell extract (AdOx-treated), washed 5 times with lysis buffer containing 0.5 M NaCl; hnRNP K detected with mAb D-6; only the target purified"}, "[3]": {"biological_target": "GST-EBNA2 fusion protein containing aa 300–400 of EBNA2, unmethylated (NMA) (Epstein-Barr virus) (UniProt P12978)", "test": "pull-down; GST fusion proteins on glutathione-Sepharose beads, incubated 2 h at 4°C with 500 µl DG75 native whole cell extract (AdOx-treated), washed 5 times with lysis buffer containing 0.5 M NaCl; hnRNP K detected with mAb D-6; only the target purified"}, "[4]": {"biological_target": "GFP-EBNA2 fusion protein, expressed in BHK cells with a lacO array (Epstein-Barr virus) (UniProt P12978)", "test": "two-hybrid; fluorescent two-hybrid assay in BHK cells with a genomic lacO array: GFP fusion (bait) captured at the array by GBP-LacI, co-localisation of the CFP or DsRed fusion (prey) at the lacO spot; cells fixed about 16 h after transfection"}}, "note": "No constants are given. Whether binding was seen depends on the method and setting. For some of these results: Binding seen in cells or lysates may run through a third protein. Some entries that bind do so weakly or less than the wild type."}
{"substance": "DsRed-EBNA2, expressed in BHK cells (from UniProt P12978 1-487)", "values": [{"measurement": "binding", "setting": "[1]", "value": "binds"}]}
{"substance": "hnRNP K, endogenous in DG75 cells (from UniProt P61978 1-463)", "values": [{"measurement": "binding", "setting": "[2]", "value": "no binding"}, {"measurement": "binding", "setting": "[3]", "value": "binds"}]}
{"substance": "CFP-hnRNP K fusion protein, expressed in BHK cells (from UniProt P61978 1-463)", "values": [{"measurement": "binding", "setting": "[4]", "value": "binds"}]}
